# Data taken from article doi:10.1101/726521.
# The chains behind the UniProt entries cited, without tags or fusion partners.
# UniProt Q39128: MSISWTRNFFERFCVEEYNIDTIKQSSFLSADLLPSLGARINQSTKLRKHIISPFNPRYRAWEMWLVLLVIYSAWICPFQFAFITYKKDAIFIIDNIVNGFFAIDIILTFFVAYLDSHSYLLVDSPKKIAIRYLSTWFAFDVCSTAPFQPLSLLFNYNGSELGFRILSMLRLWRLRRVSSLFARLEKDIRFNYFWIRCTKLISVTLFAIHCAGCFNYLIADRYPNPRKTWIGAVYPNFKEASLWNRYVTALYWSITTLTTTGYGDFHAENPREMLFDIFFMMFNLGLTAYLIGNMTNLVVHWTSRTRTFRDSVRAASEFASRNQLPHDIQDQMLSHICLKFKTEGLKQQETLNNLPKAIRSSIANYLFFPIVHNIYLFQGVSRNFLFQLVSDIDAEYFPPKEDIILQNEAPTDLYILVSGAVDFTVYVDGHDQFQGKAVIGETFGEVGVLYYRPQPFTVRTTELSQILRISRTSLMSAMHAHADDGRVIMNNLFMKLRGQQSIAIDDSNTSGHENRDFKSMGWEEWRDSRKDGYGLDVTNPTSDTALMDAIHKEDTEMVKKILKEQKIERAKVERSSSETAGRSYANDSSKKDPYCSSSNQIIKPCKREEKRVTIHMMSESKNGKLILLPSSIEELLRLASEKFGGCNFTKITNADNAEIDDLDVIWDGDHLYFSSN
# No constants are given. Whether binding was seen depends on the method and setting. For some of these results: Binding seen in cells or lysates may run through a third protein. Some results given as binding are weak or reduced against the parent protein; the word gives no strength. For some of these results: Tags and fused reporters may be left off the sequences shown.
# T1: MSL10_(1-164)-YC, soluble N-terminus of MSL10 (BiFC fusion) (Arabidopsis thaliana), Q9LYG9
# T1 chain: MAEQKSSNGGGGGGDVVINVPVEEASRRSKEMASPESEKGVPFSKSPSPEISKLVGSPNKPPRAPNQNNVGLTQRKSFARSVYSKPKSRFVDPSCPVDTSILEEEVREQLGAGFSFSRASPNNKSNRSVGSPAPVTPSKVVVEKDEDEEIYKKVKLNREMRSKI
# Key:
# [1] = target: MSL10_(553-734)-YN, soluble C-terminus of MSL10 (BiFC fusion) (Arabidopsis thaliana) (UniProt Q9LYG9); assay: split reporter
# [2] = target: MSL10^S640L_(553-734), soluble C-terminus of MSL10 with the S640L lesion (BiFC fusion) (Arabidopsis thaliana) (UniProt Q9LYG9); assay: split reporter
# [3] = target: MSL10_(1-164)-YC, soluble N-terminus of MSL10 (BiFC fusion) (Arabidopsis thaliana) (UniProt Q9LYG9); assay: split reporter
# [4] = target: MSL10_(461-734), C-terminal half of MSL10, split-ubiquitin fusion (Arabidopsis thaliana) (UniProt Q9LYG9); assay: two-hybrid
# [5] = target: MSL10^S640L_(461-734), C-terminal half of MSL10 with the S640L lesion, split-ubiquitin fusion (Arabidopsis thaliana) (UniProt Q9LYG9); assay: two-hybrid
# [6] = target: MSL10 (MscS-Like 10), split-ubiquitin fusion (Arabidopsis thaliana) (UniProt Q9LYG9); assay: two-hybrid
# [7] = target: MSL10^S640L_(553-734), soluble C-terminus of MSL10 with the S640L lesion, split-ubiquitin fusion (Arabidopsis thaliana) (UniProt Q9LYG9); assay: two-hybrid
# [8] = target: MSL10_(553-734), soluble C-terminus of MSL10, split-ubiquitin fusion (Arabidopsis thaliana) (UniProt Q9LYG9); assay: two-hybrid
# [9] = target: MSL10-YN / MSL10-YC (BiFC fusion) (Arabidopsis thaliana) (UniProt Q9LYG9); assay: split reporter
# [10] = target: T1, MSL10_(1-164)-YC, soluble N-terminus of …; assay: split reporter; settings: remark: other sources report otherwise
molecule,measurement,setting,value
KAT1 (BiFC fusion) (from UniProt Q39128 1-677),binding,[1],no binding
same,binding,[2],no binding
same,binding,[3],no binding
"MSL10_(553-734)-YN, soluble C-terminus of MSL10 (BiFC fusion) (from UniProt Q9LYG9 553-734) (domain or fragment)",binding,[1],no binding
"MSL10_(1-164), soluble N-terminus of MSL10, split-ubiquitin fusion (from UniProt Q9LYG9 1-164) (domain or fragment)",binding,[4],binds
same,binding,[5],binds
"MSL10_(1-164)-YC, soluble N-terminus of MSL10 (BiFC fusion) (from UniProt Q9LYG9 1-164) (domain or fragment)",binding,[1],binds
same,binding,[2],binds
"KAT1, split-ubiquitin fusion (from UniProt Q39128 1-677)",binding,[6],no binding
"MSL10 (MscS-Like 10), split-ubiquitin fusion (from UniProt Q9LYG9 1-734)",binding,[6],binds
"MSL10_(1-460)-YC, N-terminal half of MSL10 (BiFC fusion) (from UniProt Q9LYG9 1-460) (domain or fragment)",binding,[1],binds
same,binding,[2],binds
"MSL10_(1-460), N-terminal half of MSL10, split-ubiquitin fusion (from UniProt Q9LYG9 1-460) (domain or fragment)",binding,[7],binds
same,binding,[8],binds
same,binding,[4],binds
same,binding,[5],binds
MSL10-YN / MSL10-YC (BiFC fusion) (from UniProt Q9LYG9 1-734),binding,[9],binds
"MSL9, split-ubiquitin fusion (protein, UniProt Q84M97 1-742) MAERRVSNGEEVVINVSDKEDSKDPRASPSFNPLASPDSDAGIEKSKPVPPISIPTPEIYKFSGSVHKPPKIPSPEGLVRRKSLSRSIYSKPKSRFGEQQSFRYDSTREENGGRSLREQFGAGSFARGSFDRASPNNKSNRSVASAALSKVAEEEPDENEEIYKKVKLHRVKRSGMKPLAFLELVVFMAILGALIVSLTIDVVNKHTIWGLEFWKWCVLVMVTLSGMLVTNWFMHFVVFIIEKNYLLRKKVLYFVHGLKKNVQVFIWFSLVLIAWICLFDGDVKRTRKTKRFLDFITWTIVSLLVGSILFLVKTFALKVLASKFNVRNFFERIQESVFHQYVLQTLSGPPLIEEAENVGRVPSTGHLSFTRTKDGKVKDKKVIDMGKVHRMKQEKVSAWTMRVLIEAVGTSGISTISSTLDEVNNKKERTDKEITNEMEAVAAAYDVFNNVAKPNHNYIEEDDLLRFMIKEEVDLVLPLIEDADTGKITRKTFTEWVVNVYTSRKTIGHSLNDTKTAVKQLDKLITGILTVITFIVWMVLLDIASTKLLLVFSSQFLGLAFMIGSTCKNIFESFMFVFVMHPYDVGDRCVVDGVMLLVEEIDLLTTVFLKIDNEKVFYPNSVLISKPISNFYRSPDMGDYVDFGIAFSTPAEKIGCLKGKIGEYLVANSQHWYPEAQVMVRAIENMNKLVLNILVQHTINFQVYVEKSLRRTALIIAIKRILEDLEIDYTLLPQDVNLTGHK",binding,[6],no binding
"MSL9 (BiFC fusion) (protein, UniProt Q84M97 1-742) MAERRVSNGEEVVINVSDKEDSKDPRASPSFNPLASPDSDAGIEKSKPVPPISIPTPEIYKFSGSVHKPPKIPSPEGLVRRKSLSRSIYSKPKSRFGEQQSFRYDSTREENGGRSLREQFGAGSFARGSFDRASPNNKSNRSVASAALSKVAEEEPDENEEIYKKVKLHRVKRSGMKPLAFLELVVFMAILGALIVSLTIDVVNKHTIWGLEFWKWCVLVMVTLSGMLVTNWFMHFVVFIIEKNYLLRKKVLYFVHGLKKNVQVFIWFSLVLIAWICLFDGDVKRTRKTKRFLDFITWTIVSLLVGSILFLVKTFALKVLASKFNVRNFFERIQESVFHQYVLQTLSGPPLIEEAENVGRVPSTGHLSFTRTKDGKVKDKKVIDMGKVHRMKQEKVSAWTMRVLIEAVGTSGISTISSTLDEVNNKKERTDKEITNEMEAVAAAYDVFNNVAKPNHNYIEEDDLLRFMIKEEVDLVLPLIEDADTGKITRKTFTEWVVNVYTSRKTIGHSLNDTKTAVKQLDKLITGILTVITFIVWMVLLDIASTKLLLVFSSQFLGLAFMIGSTCKNIFESFMFVFVMHPYDVGDRCVVDGVMLLVEEIDLLTTVFLKIDNEKVFYPNSVLISKPISNFYRSPDMGDYVDFGIAFSTPAEKIGCLKGKIGEYLVANSQHWYPEAQVMVRAIENMNKLVLNILVQHTINFQVYVEKSLRRTALIIAIKRILEDLEIDYTLLPQDVNLTGHK",binding,[1],no binding
same,binding,[2],no binding
same,binding,[3],no binding
"MSL10_(1-164)-YC, soluble N-terminus of MSL10 (BiFC fusion), Q9LYG9 1-164 (domain or fragment) MAEQKSSNGGGGGGDVVINVPVEEASRRSKEMASPESEKGVPFSKSPSPEISKLVGSPNKPPRAPNQNNVGLTQRKSFARSVYSKPKSRFVDPSCPVDTSILEEEVREQLGAGFSFSRASPNNKSNRSVGSPAPVTPSKVVVEKDEDEEIYKKVKLNREMRSKI",binding,[10],no binding
